Source: paper PMC7900238, “A meet-up of two second messengers: the c-di-AMP receptor DarB controls (p)ppGpp synthesis in Bacillus subtilis” (Nature Communications, 2021)
These are yes or no findings as the source states them, for the method shown. Some binding calls cover weakened binding; strength is not graded here. Where a sequence is shown, tags or fusion partners need not be part of it.

Target: DarB fused to the T18 or T25 domain of CyaA (BACTH) (B. subtilis 168) (UniProt O31698)
Experiment: two-hybrid; bacterial two-hybrid (BACTH), N- and C-terminal fusions to T18 or T25 of CyaA, E. coli BTH101, X-Gal plates, up to 36 h at 28 °C

B1: DarB fused to the T18 or T25 domain of CyaA (BACTH) (protein, UniProt O31698 2-147)
chain: ISLQSDQLLEATVGQFMIEADKVAHVQVGNNLEHALLVLTKTGYTAIPVLDPSYRLHGLIGTNMIMNSIFGLERIEFEKLDQITVEEVMLTDIPRLHINDPIMKGFGMVINNGFVCVENDEQVFEGIFTRRVVLKELNKHIRSLNK
With B1 the binding was “binds”.
